At least one structure is not confirmed: it was looked up by name or label, or the drawing left a doubt.
Tests used:
Nf1−/− astrocytes = assay: Cell number by trypan blue exclusion, Nf1−/− astrocytes; assay type: cell-based, mouse
Procedure: (§1) Culture and treatment of primary astrocytes. Primary cultures of astrocytes were prepared from post-natal day two Nf1^flox/flox mice as previously described (134) and in accordance with established Animal Studies Protocols at Washington University School of Medicine. Cultures were infected with adenovirus containing either Cre recombinase (Nf1−/−) or LacZ (Nf1+/+). Primary cultures of astrocytes were grown under standard adherent conditions in serum free media (DMEM/F12 or Neurobasal (Gibco-BRL)) in the presence or absence of 0.1 μg/ml CXCL12 (Peprotech) and 10 μM Forskolin for 24 hours, as indicated. Cell number was determined after 24 hours by trypan blue exclusion and the growth effects of CXCL12 were derived as follows: ((cell number in the presence of CXCL12—cell number cell in the absence of CXCL12)/cell number in the absence of CXCL12)×100.)
(§2) To determine the biological significance of CXCR4 activation to NF1 glioma biology, we next sought to evaluate the regulation of CXCL12 growth effects by neurofibromin in astrocytes. While the true cell of origin of astrocytomas remains unknown, we utilized primary cultures of cortical astrocytes as a model of a normal counterpart to astrocytoma cells. Astrocytes were derived from Nf1^flox/flox mice and rendered Nf1+/+ or Nf1−/− by infection with adenovirus encoding LacZ or Cre recombinase, respectively.

Nf1+/+ astrocytes = assay: Cell number by trypan blue exclusion, Nf1+/+ astrocytes; assay type: cell-based, mouse
Procedure: as §1, §2

U87 glioblastoma cells [1] = assay: Intracellular cAMP by ELISA, U87 glioblastoma cells; assay type: cell-based, human; conditions: Rolipram 200 μM or Forskolin 10 μM; not abrogated by CXCL12
Procedure: (§3) Growth factor and drug treatment. Following serum-starvation for 24 hours, astrocytes, granule cells, U87 cells and Daoy cells, were treated with 1 μg/ml CXCL12 (PeproTech), […] AMD3465 (kind gift from Simon Fricker, AnorMED, Langley, BC, Canada) (200 μM Rolipram (Sigma), or 10 μM Forskolin (Sigma) as indicated.
(§4) cAMP measurement in cell culture. cAMP concentration was measured using a Correlated-EIA™. Enzyme Immunoassay Kit (Assay Designs Inc. MI) according to the manufacturer's instructions. Briefly, U87 or Daoy cells were serum-starved for 24 hours, and treated with CXCL12 (1 μg/ml), Rolipram (200 μM), or forskolin (10 μM). Cells were lysed in 0.1M HCL and particulate matter was removed by centrifugation at >600×g for 10 min. The supernatants were dried down and resuspended in assay buffer.
(§5) Determination of cAMP concentration. Competitive immunoassay for cAMP concentration was performed exactly as directed by the manufacturer. Absorbance at 405 nm was measured and cAMP concentrations were determined by calculation based on a standard curve. Protein concentrations were measured by colormetric assay (Bio-Rad, Hercules, Calif.) according to the manufacturer's directions. cAMP values were normalized to protein for each sample individually.

U87 glioblastoma cells [2] = assay: Viable cell number by trypan blue exclusion, U87 cells; assay type: cell-based, human; conditions: with CXCL12 1 μg/ml; Rolipram 200 μM, Forskolin 10 μM, AMD 3465 2.5 μg/ml
Procedure: (§6) Brain tumor cell cultures. Cells were cultured in αMEM (Invitrogen, Carlsbad, Calif.) supplemented with 10% FCS (Biomedia, Foster City, Calif.) in the presence of penicillin streptomycin at 37° C. with 5% CO2.
as §3

[3] = test system: Daoy medulloblastoma cells; assay: Viable cell number by trypan blue exclusion, Daoy cells; assay type: cell-based, human; conditions: with CXCL12 1 μg/ml; Rolipram 200 μM, Forskolin 10 μM, AMD 3465 2.5 μg/ml
Procedure: as §6, §3

[4] = test system: Daoy medulloblastoma cells; assay: Intracellular cAMP by ELISA, Daoy medulloblastoma cells; assay type: cell-based, human; conditions: Rolipram 200 μM or Forskolin 10 μM; not abrogated by CXCL12
Procedure: as §3, §4, §5

| SMILES | astrocyte growth (Nf1−/− astrocytes; data not shown) | astrocyte growth (Nf1+/+ astrocytes; data not shown) | CXCL12 growth-promoting effects (Nf1−/− astrocytes; forskolin 10 μM with CXCL12 0.1 μg/ml) | change in intracellular cAMP (U87 glioblastoma cells [1]) | effect on CXCL12 induced growth (U87 glioblastoma cells [2]) | astrocyte number (Nf1+/+ astrocytes; forskolin 10 μM) | effect on CXCL12 induced growth [3] | change in intracellular cAMP [4] |
| --- | --- | --- | --- | --- | --- | --- | --- | --- |
| COC[C@H]1OC(=O)c2coc3c2[C@@]1(C)C1=C(C3=O)[C@@H]2CCC(=O)[C@@]2(C)C[C@H]1OC(C)=O [wortmannin] | prevented growth | prevented growth | – | – | – | – | – | – |
| C=C[C@@]1(C)CC(=O)[C@]2(O)[C@@]3(C)[C@@H](O)CCC(C)(C)[C@@H]3[C@H](O)[C@H](OC(C)=O)[C@@]2(C)O1 [forskolin] | – | – | blocked | predictable increases | blocked | decreased | blocked | predictable increases |
